Data as given in PubChem BioAssay AID1259281 (Sanger Institute, 2017)
Screen: 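Screen kinases and frequently colorectal-mutated genes for lethal knock-downs and drug partners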 (primary screen). Cell system: human COLO678 colorectal cancer cell line. Reagents: siRNA pool against human genes. Challenge: anchor drugs at fixed doses: BYL719 1 µM, cetuximab 5 µg/ml or trametinib 10 nM; DMSO vehicle for the siRNA-alone arm. Measured: 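Cell viability compared with non-targeting pool wells, averaged over replicates; knock-down-alone effect also as robust z-score; synergy scores set knock-down plus drug against expected joint effect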. Reading the numbers: robust z-score, siRNA alone: higher = more viable cells; strongly negative means essential. Active means: 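Essential (knock-down alone) when the siRNA-alone robust z-score is below -3; otherwise no change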. Calls: active = essential (knock-down alone); inactive = no change.
The deposit covers 794 reagents; below is a random part of them. Over the whole deposit, 22 (2.8%) got an active call. 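Calls rest on knock-down alone only; drug synergy scores play no part in them.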 Further read-outs or replicates are left out here. Not given: the amount of reagent, the time to read-out.

gene | PubChem SID | robust z-score, siRNA alone | Outcome
GCK (glucokinase) | SID56479241 | 0.473 | inactive
CDC42BPB (CDC42 binding protein kinase beta) | SID152149037 | 0.473 | inactive
CDK12 (cyclin dependent kinase 12) | SID152151382 | 0.296 | inactive
MAPK6 (mitogen-activated protein kinase 6) | SID56478707 | 0.338 | inactive
DAPK2 (death associated protein kinase 2) | SID152156399 | 0.214 | inactive
STK32A (serine/threonine kinase 32A) | SID152151517 | 0.473 | inactive
SPEG (striated muscle enriched protein kinase) | SID56479185 | 0.473 | inactive
PIK3CB | SID56478474 | -0.694 | inactive
BCKDK (branched chain keto acid dehydrogenase kinase) | SID135620909 | 0.473 | inactive
BMPR1B (bone morphogenetic protein receptor type 1B) | SID56478926 | 0.473 | inactive
CDK2 (cyclin dependent kinase 2) | SID56478596 | 0.473 | inactive
KDR (kinase insert domain receptor) | SID56478526 | 0.473 | inactive
MAPK13 (mitogen-activated protein kinase 13) | SID56478704 | 0.473 | inactive
TP53BP1 (tumor protein p53 binding protein 1) | SID134309949 | -1.79 | inactive
PDPK1 (3-phosphoinositide dependent protein kinase 1) | SID135620604 | 0.473 | inactive
EPHB1 (EPH receptor B1) | SID152152600 | 0.473 | inactive
AK2 (adenylate kinase 2) | SID56479162 | 0.473 | inactive
DAPK3 (death associated protein kinase 3) | SID56478935 | -1.52 | inactive
SYK (spleen associated tyrosine kinase) | SID56478554 | -0.285 | inactive
GUCY2D (guanylate cyclase 2D, retinal) | SID135620972 | -3.1 | active
ADK (adenosine kinase) | SID56478860 | 0.473 | inactive
ETNK2 (ethanolamine kinase 2) | SID56478982 | -1.6 | inactive
CIB2 (calcium and integrin binding family member 2) | SID134316517 | -1.18 | inactive
ACVR1B (activin A receptor type 1B) | SID56478918 | 0.473 | inactive

6 entries from above, ordered by “robust z-score, siRNA alone”, descending:
gene | PubChem SID | robust z-score, siRNA alone | Outcome
STK32A (serine/threonine kinase 32A) | SID152151517 | 0.473 | inactive
SPEG (striated muscle enriched protein kinase) | SID56479185 | 0.473 | inactive
BCKDK (branched chain keto acid dehydrogenase kinase) | SID135620909 | 0.473 | inactive
MAPK6 (mitogen-activated protein kinase 6) | SID56478707 | 0.338 | inactive
DAPK2 (death associated protein kinase 2) | SID152156399 | 0.214 | inactive
PIK3CB | SID56478474 | -0.694 | inactive

Further results follow.
gene | PubChem SID | robust z-score, siRNA alone | Outcome
TGFBR2 (transforming growth factor beta receptor 2) | SID152152630 | 0.473 | inactive
MAP3K19 (mitogen-activated protein kinase kinase kinase 19) | SID135620896 | -2.18 | inactive
PNCK (pregnancy up-regulated nonubiquitous CaM kinase) | SID152151558 | 0.473 | inactive
RET (ret proto-oncogene) | SID135620630 | 0.473 | inactive
CDC7 (cell division cycle 7) | SID56478594 | 0.473 | inactive
CAMKK2 (calcium/calmodulin dependent protein kinase kinase 2) | SID135620895 | 0.473 | inactive
STK17A (serine/threonine kinase 17a) | SID152148521 | -0.477 | inactive
MAPK4 (mitogen-activated protein kinase 4) | SID152148838 | -1.04 | inactive
MAGI1 | SID152150294 | 0.473 | inactive
RFK (riboflavin kinase) | SID152154046 | -1.5 | inactive
STK10 (serine/threonine kinase 10) | SID56478780 | -2.08 | inactive
PFKFB3 (6-phosphofructo-2-kinase/fructose-2,6-biphosphatase 3) | SID135621247 | 0.473 | inactive
CDK3 (cyclin dependent kinase 3) | SID56478597 | 0.473 | inactive
PTEN (phosphatase and tensin homolog) | SID152153158 | 0.473 | inactive
MYLK2 (myosin light chain kinase 2) | SID56479029 | 0.473 | inactive
STRADB (STE20 related adaptor beta) | SID135620967 | 0.473 | inactive
GUCY2C (guanylate cyclase 2C) | SID152148747 | 0.473 | inactive
MOS (MOS proto-oncogene, serine/threonine kinase) | SID56478732 | -0.796 | inactive
PRKAG2 (protein kinase AMP-activated non-catalytic subunit gamma 2) | SID135621825 | 0.253 | inactive
CHUK | SID152149746 | 0.473 | inactive
EPHA2 (EPH receptor A2) | SID135620614 | 0.473 | inactive
CAMKV (CaM kinase like vesicle associated) | SID135620973 | 0.473 | inactive
PRAG1 (PEAK1 related, kinase-activating pseudokinase 1) | SID152147410 | -1.01 | inactive
STK24 (serine/threonine kinase 24) | SID135620898 | 0.473 | inactive
STK31 (serine/threonine kinase 31) | SID135620977 | 0.473 | inactive
DYRK1B | SID56478878 | 0.228 | inactive
MASTL (microtubule associated serine/threonine kinase like) | SID56478754 | -0.0645 | inactive
NEK9 (NIMA related kinase 9) | SID56478903 | 0.473 | inactive
STK38 (serine/threonine kinase 38) | SID152149792 | -0.781 | inactive
ALDH18A1 (aldehyde dehydrogenase 18 family member A1) | SID152152799 | 0.473 | inactive
DGKH (diacylglycerol kinase eta) | SID134311961 | 0.473 | inactive
PRKCH (protein kinase C eta) | SID56478829 | 0.224 | inactive
PKN2 (protein kinase N2) | SID152156352 | -1.58 | inactive
HK3 (hexokinase 3) | SID56479104 | 0.473 | inactive
CPNE3 (copine 3) | SID134315878 | 0.473 | inactive
PDXK (pyridoxal kinase) | SID56478979 | 0.473 | inactive
ADPGK (ADP dependent glucokinase) | SID134311981 | 0.352 | inactive
NUP107 (nucleoporin 107) | SID152154550 | -1.34 | inactive
PLK2 (polo like kinase 2) | SID56478648 | -1.29 | inactive
